Assay results reported in the supplement of paper PMC12823440, “Inhibitors supercharge kinase turnover through native proteolytic circuits” (Nature, 2025).
Where a name gives a salt, the structure may show the parent alone. The list shows a part of the results. The calls rarely recur for the same compound in another form.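 In K562 cells expressing nanoluciferase-fused kinases, luminescence was recorded at 4 h intervals between 2 and 18 h, normalized as percent of control with DMSO at 100% and a positive control at 0%. A significant (2 sigma) signal drop marks a time point as decreased. The authors' rule for a hit is not shown and takes in more than the number of time points.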

Amino acid sequences for entries named in this document (tags omitted). A change or cut given only in a name is not applied to a line headed by its entry.
UniProt P29317, whole entry: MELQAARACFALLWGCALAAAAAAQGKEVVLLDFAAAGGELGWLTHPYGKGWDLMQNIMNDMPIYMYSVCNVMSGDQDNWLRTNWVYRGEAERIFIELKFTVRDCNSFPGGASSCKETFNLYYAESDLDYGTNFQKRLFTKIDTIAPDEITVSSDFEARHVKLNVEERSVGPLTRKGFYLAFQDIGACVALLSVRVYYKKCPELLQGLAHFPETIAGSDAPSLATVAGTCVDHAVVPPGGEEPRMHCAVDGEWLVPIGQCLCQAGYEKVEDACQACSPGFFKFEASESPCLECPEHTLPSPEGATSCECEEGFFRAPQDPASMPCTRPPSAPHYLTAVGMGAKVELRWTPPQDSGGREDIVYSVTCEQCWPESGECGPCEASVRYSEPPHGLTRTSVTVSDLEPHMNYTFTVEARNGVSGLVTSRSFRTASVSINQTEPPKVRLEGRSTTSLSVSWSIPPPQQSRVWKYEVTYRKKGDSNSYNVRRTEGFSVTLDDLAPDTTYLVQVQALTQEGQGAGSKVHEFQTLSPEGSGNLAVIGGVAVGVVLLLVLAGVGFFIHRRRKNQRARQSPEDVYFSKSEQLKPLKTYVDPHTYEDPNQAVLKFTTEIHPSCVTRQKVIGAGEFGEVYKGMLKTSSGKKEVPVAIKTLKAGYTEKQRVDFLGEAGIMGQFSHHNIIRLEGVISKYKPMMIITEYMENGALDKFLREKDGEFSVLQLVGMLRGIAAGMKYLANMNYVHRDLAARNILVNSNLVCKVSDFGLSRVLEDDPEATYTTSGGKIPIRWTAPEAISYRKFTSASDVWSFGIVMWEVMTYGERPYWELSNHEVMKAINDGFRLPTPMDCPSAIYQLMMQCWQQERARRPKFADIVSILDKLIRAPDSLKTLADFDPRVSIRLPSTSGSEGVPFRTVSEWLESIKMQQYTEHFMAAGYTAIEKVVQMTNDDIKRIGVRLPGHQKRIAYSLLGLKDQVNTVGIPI
UniProt O75460: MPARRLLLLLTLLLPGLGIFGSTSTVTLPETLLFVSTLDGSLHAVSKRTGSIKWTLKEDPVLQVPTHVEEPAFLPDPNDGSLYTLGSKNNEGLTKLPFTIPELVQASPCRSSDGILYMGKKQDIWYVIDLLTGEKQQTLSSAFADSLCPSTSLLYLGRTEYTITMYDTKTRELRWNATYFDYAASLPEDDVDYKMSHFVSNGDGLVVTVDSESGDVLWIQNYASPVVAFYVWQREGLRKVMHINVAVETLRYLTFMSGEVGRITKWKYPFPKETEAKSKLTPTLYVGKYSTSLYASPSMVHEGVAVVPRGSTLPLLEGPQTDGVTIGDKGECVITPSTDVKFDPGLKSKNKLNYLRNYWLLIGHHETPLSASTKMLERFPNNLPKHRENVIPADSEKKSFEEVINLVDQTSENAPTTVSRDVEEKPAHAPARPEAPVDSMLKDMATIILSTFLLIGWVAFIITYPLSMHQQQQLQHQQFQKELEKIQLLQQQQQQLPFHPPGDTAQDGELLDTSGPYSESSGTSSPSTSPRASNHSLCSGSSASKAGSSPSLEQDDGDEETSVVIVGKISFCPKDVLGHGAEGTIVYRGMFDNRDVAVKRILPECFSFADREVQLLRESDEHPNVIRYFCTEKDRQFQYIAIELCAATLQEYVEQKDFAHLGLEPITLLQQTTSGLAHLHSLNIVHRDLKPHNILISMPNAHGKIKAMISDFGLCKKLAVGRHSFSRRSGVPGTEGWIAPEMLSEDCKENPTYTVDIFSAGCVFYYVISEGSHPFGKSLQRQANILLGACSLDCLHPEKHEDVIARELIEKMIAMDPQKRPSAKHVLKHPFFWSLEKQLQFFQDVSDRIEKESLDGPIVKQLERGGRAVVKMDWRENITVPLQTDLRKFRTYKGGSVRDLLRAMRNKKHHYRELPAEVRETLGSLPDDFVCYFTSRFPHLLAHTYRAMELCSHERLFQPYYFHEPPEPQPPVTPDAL
UniProt P21802, whole entry, looked up: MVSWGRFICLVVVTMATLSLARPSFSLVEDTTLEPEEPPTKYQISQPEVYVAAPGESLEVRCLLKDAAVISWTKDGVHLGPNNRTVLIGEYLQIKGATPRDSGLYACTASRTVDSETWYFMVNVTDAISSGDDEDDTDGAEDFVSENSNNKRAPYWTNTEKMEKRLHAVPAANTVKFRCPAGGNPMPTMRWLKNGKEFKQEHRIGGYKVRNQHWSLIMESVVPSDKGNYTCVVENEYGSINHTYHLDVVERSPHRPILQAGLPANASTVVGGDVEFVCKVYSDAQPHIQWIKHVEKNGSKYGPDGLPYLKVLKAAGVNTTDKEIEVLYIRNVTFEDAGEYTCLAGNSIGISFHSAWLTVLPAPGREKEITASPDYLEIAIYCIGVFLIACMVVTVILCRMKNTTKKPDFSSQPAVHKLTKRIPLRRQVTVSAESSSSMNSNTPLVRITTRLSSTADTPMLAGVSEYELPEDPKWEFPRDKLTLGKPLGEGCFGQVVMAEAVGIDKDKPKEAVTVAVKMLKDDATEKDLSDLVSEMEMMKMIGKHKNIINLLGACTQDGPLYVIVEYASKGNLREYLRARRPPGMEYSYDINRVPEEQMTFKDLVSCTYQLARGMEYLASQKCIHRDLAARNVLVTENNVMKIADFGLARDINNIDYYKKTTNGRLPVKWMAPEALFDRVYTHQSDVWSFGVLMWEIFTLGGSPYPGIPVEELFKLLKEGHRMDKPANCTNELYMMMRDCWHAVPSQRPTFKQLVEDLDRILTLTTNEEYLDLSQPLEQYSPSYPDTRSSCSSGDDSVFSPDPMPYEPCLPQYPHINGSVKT
UniProt P22607, whole entry, looked up: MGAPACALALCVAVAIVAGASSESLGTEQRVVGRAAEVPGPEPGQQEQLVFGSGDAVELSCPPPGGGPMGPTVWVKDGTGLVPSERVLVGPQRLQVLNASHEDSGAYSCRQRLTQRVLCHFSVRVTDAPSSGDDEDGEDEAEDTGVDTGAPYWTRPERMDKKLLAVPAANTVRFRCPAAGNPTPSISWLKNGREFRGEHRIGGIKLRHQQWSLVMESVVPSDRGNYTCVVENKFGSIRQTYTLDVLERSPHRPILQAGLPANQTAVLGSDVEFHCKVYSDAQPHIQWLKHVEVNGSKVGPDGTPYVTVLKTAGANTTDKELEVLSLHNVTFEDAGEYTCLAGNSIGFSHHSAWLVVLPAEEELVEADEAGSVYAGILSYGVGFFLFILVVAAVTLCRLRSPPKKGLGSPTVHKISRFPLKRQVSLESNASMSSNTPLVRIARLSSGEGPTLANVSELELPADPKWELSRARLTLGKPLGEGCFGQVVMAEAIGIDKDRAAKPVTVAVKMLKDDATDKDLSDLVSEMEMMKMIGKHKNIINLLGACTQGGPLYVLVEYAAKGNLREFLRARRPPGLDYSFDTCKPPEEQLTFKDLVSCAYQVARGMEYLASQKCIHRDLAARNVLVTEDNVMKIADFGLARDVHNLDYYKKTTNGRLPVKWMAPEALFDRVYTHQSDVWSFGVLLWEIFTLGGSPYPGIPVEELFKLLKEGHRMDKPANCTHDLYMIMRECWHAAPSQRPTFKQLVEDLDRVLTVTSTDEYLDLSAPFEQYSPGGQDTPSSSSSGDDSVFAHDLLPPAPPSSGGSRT
UniProt P06241, whole entry, looked up: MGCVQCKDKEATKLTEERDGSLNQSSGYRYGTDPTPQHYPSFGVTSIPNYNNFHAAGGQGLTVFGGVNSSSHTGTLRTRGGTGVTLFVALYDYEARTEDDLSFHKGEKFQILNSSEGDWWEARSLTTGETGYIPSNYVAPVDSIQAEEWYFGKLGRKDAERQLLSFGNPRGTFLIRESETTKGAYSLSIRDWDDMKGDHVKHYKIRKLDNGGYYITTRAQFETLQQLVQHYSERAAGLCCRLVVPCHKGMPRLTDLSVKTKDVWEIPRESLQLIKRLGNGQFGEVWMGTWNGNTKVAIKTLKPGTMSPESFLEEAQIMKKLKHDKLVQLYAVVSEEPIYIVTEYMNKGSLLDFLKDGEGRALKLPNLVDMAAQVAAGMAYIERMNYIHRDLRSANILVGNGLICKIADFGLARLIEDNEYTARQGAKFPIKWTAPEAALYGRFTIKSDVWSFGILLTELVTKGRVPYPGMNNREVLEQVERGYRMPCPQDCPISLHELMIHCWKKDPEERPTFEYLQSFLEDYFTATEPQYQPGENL
UniProt P23458: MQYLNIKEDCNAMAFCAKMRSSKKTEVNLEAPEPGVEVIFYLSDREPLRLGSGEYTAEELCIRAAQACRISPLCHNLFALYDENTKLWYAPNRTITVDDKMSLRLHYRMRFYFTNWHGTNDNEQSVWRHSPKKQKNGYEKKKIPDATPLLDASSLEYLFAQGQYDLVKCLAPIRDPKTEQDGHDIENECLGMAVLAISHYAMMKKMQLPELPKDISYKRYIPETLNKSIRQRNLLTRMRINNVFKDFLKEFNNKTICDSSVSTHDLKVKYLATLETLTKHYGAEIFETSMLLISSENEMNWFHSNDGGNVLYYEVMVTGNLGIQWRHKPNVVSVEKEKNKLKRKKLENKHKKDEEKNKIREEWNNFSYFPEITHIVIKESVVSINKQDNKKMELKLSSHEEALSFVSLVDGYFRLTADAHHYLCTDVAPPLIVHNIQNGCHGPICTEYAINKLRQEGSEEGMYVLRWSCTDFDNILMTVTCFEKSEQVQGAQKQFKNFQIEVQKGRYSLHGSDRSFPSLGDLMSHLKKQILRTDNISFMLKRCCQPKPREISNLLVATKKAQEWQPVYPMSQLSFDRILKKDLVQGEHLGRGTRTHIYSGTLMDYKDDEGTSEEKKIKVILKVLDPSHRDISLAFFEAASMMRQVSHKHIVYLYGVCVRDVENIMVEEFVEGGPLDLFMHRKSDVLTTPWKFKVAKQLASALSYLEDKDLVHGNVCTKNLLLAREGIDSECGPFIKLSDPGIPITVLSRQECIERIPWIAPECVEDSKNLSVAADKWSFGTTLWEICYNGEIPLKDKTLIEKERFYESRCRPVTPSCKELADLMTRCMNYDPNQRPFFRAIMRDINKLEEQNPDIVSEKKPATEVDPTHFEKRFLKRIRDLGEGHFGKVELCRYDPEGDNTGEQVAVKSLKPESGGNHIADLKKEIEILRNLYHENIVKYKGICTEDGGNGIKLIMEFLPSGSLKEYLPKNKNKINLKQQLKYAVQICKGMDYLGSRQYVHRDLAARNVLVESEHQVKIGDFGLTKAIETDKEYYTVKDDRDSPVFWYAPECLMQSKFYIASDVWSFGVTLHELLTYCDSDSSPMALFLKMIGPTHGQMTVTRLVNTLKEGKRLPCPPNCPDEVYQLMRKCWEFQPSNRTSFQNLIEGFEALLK
UniProt P53667: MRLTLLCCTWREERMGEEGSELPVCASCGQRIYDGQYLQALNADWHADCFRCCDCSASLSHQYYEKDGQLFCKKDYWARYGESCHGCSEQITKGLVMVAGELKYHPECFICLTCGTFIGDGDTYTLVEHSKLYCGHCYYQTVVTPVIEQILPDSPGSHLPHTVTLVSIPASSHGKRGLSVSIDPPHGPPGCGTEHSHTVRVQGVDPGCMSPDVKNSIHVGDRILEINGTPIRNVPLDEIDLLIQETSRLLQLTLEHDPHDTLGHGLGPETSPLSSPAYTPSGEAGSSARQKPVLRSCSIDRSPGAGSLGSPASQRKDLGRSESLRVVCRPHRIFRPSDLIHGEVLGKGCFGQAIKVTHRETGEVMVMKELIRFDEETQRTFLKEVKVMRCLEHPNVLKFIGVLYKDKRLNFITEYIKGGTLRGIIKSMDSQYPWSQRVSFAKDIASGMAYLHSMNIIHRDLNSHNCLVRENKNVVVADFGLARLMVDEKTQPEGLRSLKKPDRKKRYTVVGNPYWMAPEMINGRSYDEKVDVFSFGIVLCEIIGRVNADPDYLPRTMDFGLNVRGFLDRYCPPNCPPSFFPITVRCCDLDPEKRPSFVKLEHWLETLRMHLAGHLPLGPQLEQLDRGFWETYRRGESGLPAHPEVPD
UniProt P53671: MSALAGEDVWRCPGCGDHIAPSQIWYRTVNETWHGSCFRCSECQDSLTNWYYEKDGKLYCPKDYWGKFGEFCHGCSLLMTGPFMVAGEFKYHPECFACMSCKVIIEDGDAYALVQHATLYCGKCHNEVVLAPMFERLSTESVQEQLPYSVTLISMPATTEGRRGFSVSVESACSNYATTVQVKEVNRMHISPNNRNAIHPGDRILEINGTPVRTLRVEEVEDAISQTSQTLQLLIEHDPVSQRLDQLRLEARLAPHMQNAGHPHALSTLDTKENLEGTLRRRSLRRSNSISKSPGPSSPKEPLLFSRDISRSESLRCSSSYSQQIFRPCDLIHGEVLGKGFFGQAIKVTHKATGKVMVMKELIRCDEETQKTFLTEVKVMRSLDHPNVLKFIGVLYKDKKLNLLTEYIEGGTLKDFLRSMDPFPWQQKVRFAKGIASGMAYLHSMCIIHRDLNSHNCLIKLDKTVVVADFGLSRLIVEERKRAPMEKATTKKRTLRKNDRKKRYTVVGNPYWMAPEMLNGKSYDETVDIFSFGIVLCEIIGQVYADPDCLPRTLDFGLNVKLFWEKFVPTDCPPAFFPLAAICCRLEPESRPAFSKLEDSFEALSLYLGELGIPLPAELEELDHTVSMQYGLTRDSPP

Experiments:
Assay in all cases: number of time points (of 5) at which kinase-Nluc abundance scored as decreased, DMSO-normalised (count); higher = more persistent destabilization
Details in all cases: K562; 2-18 h
[1] = biological target: EGFR_L861Q (UniProt P00533)
[2] = biological target: EGFR_T790M (UniProt P00533)
[3] = biological target: EPHA2 (UniProt P29317)
[4] = biological target: ERBB3 (UniProt P21860)
[5] = biological target: ERBB4_R711C (clone: ERBB4_mut) (UniProt Q15303)
[6] = biological target: ERN1 (UniProt O75460)
[7] = biological target: FGFR1 (UniProt P11362)
[8] = biological target: FGFR2 (UniProt P21802)
[9] = biological target: FGFR3 (UniProt P22607)
[10] = biological target: FGR (UniProt P09769)
[11] = biological target: FLT3 (UniProt P36888)
[12] = biological target: FYN (UniProt P06241)
[13] = biological target: GSK3A (UniProt P49840)
[14] = biological target: HER2 (UniProt P04626)
[15] = biological target: INSRR (UniProt P14616)
[16] = biological target: IRAK3 (UniProt Q9Y616)
[17] = biological target: JAK1 (UniProt P23458)
[18] = biological target: LCK (UniProt P06239)
[19] = biological target: LIMK1 (UniProt P53667)
[20] = biological target: LIMK2 (UniProt P53671)

Structure (SMILES)	number of time points [1]	number of time points [2]	number of time points [3]	number of time points [4]	number of time points [5]	number of time points [6]	number of time points [7]	number of time points [8]	number of time points [9]	number of time points [10]	number of time points [11]	number of time points [12]	number of time points [13]	number of time points [14]	number of time points [15]	number of time points [16]	number of time points [17]	number of time points [18]	number of time points [19]	number of time points [20]
CCN1CCN(Cc2ccc(C(=O)Nc3ccc(C)c(Oc4ccc5c(c4)CC(=O)N5)c3)cc2C(F)(F)F)CC1 (2.5 µM)	2	1	2	3	3	2	2	3	0	0	1	2	0	0	3	1	1	0	2	1
CC#CC(=O)N[C@H]1CCCN(c2c(F)cc(C(N)=O)c3[nH]c(C)c(C)c23)C1 [Branebrutinib] (10 µM)	0	0	0	0	0	0	0	0	0	0	0	0	0	0	0	0	0	0	0	0
Cc1[nH]c(/C=C2\C(=O)Nc3ccc(S(=O)(=O)Cc4c(Cl)cccc4Cl)cc32)c(C)c1C(=O)N1CCC[C@@H]1CN1CCCC1 (2.5 µM)	0	0	0	0	0	0	0	0	0	0	0	0	0	0	0	0	0	0	0	0
CC(C)(C)c1nc2c3cc[nH]c(=O)c3c3cc(F)ccc3c2[nH]1 [Pyridone 6] (10 µM)	0	0	0	0	0	0	0	0	0	0	0	0	0	0	0	0	0		0	0
O=C(Nc1ccc(-c2ccnc(Nc3ccc(N4CCOCC4)cc3)n2)cc1)C1CCCN1 (stereo unspecified) (10 µM)	0	0	0	0	0	0	0	0	0	0	0	0	0	0	0	0	0	0	0	0
CC(C)(C)c1cc(NC(=O)Nc2ccc(-c3cn4c(n3)sc3cc(OCCN5CCOCC5)ccc34)cc2)no1 [Quizartinib] (10 µM)	0	0	0	0	0	0	4	3	0	0		3	0	0	0	0	0	0	2	2
COCc1c(-c2ccc(NC(=O)Nc3cc(C(F)(F)F)ccc3F)c(F)c2)c2c(N)ncnn2c1CN1CCOCC1 (2.5 µM)	0	0	0	0	0	0	0	3	0	0	0	0	0	0	0	0	0	0	0	0
C=CC(=O)N[C@H]1COC[C@H]1Nc1ncc2cc(-c3c(Cl)c(OC)cc(OC)c3Cl)c(=O)n(C)c2n1 (10 µM)	0	0	0	0	0	0	0		0	0	0	0	0	0	0	0	0	0	0	0
CC(C)(C)n1nc(Cc2cccc3ccccc23)c2c(N)ncnc21 (10 µM)	0	0	0	0	0	0	0	0	0	0	0	0	0	0	0	0	0		0	0
Cc1ccc(NC(=O)c2cccc(N(C)C)c2)cc1NC(=O)c1ccc(O)cc1 (10 µM)	0	0	0	0	0	0	0	0	0	0	0	0	0	0	0	0	0		0	0
Cc1cccc([C@@H](CO)NC(=O)[C@@H](C)N2Cc3ccc(-c4nc(NC5CCOCC5)ncc4Cl)cc3C2=O)c1 [ERK1/2 inhibitor 1] (10 µM)	0	0	0	2	1	0	0	0	0	0	0	0	0	0	0	0	0	0	0	0
O=C(NOC[C@H](O)CO)c1ccc(F)c(F)c1Nc1ccc(I)cc1F (2.5 µM)	0	0	0	0	0	0	0	0	0	0	0	0	0	0	0	0	0	0	0	0
Oc1cc(O)cc(/C=C/c2ccc(O)c(O)c2)c1 [Piceatannol] (10 µM)	3	0	0	0	4	3	3	3	0	2	2	1	0	3	3	3	0		2	1
CN1CCN(S(=O)(=O)c2ccc(-c3cnc(N)c(C(=O)Nc4cccnc4)n3)cc2)CC1 (10 µM)	0	0	0	0	1	0	0	0	0	0	0	0	0	0	0	0	0	0	0	0
Cc1ccc2c(Nc3ccc(Cl)cc3)nccc2c1Nc1ncccc1-c1ncnc2nc[nH]c12 [Raf inhibitor 1] (2.5 µM)	0	0	0	0	0	0	0	0	0	0	0	0	0	0	0	0	0		0	0
NS(=O)(=O)c1ccc(Nc2nc(OCC3CCCCC3)c3[nH]cnc3n2)cc1 (10 µM)	0	0	0	0	0	0	0	0	0	0	0	0	0	0	0	0	0	0	0	0
CC(C)(/C=C(\C#N)C(=O)N1CCC[C@@H](n2nc(-c3ccc(Oc4ccccc4)cc3F)c3c(N)ncnc32)C1)N1CCN(C2COC2)CC1 (2.5 µM)	0	0	0	0	0	0	0	0	0	0	0	0	0	0	0	0	0	0	0	0
COc1ccc(F)c(F)c1C(=O)c1cnc(NC2CCN(S(C)(=O)=O)CC2)nc1N (2.5 µM)	2	0	0	4	3	3	0	3	0	0	3	3	2	2	2	3	1	0	0	0
CCn1c(=O)c2cc(C(N)=O)c(N)nc2n(C2CC2)c1=O (10 µM)	0	0	0	0	0	0	0	0	0	0	0	0	0	0	0	0	0	0	0	0
CN(C)C[C@@H]1CCn2cc(c3ccccc32)C2=C(C(=O)NC2=O)c2cn(c3ccccc23)CCO1 [Ruboxistaurin (hydrochloride)] (10 µM)	0	0	0	0	0	0	0	0	0	0	0	0	0	0	0	0	0		0	0
CCCS(=O)(=O)Nc1ccc(F)c(C(=O)c2c[nH]c3ncc(Cl)cc23)c1F (10 µM)	0	0	0	2	0	0	0	0	0	0	0	0	0	0	0	0	4	0	0	0
Cc1cc(F)c(C(=O)Nc2cccc(-c3nncn3C(C)C)n2)cc1-n1cnc(C2CC2)c1 [Selonsertib] (10 µM)	0	0	0	0	0	0	0	0	0	0	0	0	0	0	0	0	0	0	0	0
CCCCC[C@H](O)CC(=O)CCc1ccc(O)c(OC)c1 [[6]-Gingerol] (10 µM)	0	0	0	0	0	0	0	0	0	0	0	0	0	0	0	0	0	0	0	0
CCCCNc1ncc(-c2ccc(CN3CCOCC3)cn2)c(NC2CCC(O)CC2)n1 (stereo unspecified) (10 µM)	0	0	0	0	0	0	0	0	0	0		0	0	0	0	0	0	0	0	0
COc1cc2ncnc(Nc3cccc(Cl)c3F)c2cc1OC(=O)N1CCN(C)C[C@H]1C [Zorifertinib] (10 µM)	0	0	0	0	0	0	3	0	0	0	0	0	3	0	0	0	0	0	0	0

Filtered by structure, those above containing a tert-butyl group (3)
Structure (SMILES)	number of time points [1]	number of time points [2]	number of time points [3]	number of time points [4]	number of time points [5]	number of time points [6]	number of time points [7]	number of time points [8]	number of time points [9]	number of time points [10]	number of time points [11]	number of time points [12]	number of time points [13]	number of time points [14]	number of time points [15]	number of time points [16]	number of time points [17]	number of time points [18]	number of time points [19]	number of time points [20]
CC(C)(C)c1nc2c3cc[nH]c(=O)c3c3cc(F)ccc3c2[nH]1 [Pyridone 6] (10 µM)	0	0	0	0	0	0	0	0	0	0	0	0	0	0	0	0	0		0	0
CC(C)(C)c1cc(NC(=O)Nc2ccc(-c3cn4c(n3)sc3cc(OCCN5CCOCC5)ccc34)cc2)no1 [Quizartinib] (10 µM)	0	0	0	0	0	0	4	3	0	0		3	0	0	0	0	0	0	2	2
CC(C)(C)n1nc(Cc2cccc3ccccc23)c2c(N)ncnc21 (10 µM)	0	0	0	0	0	0	0	0	0	0	0	0	0	0	0	0	0		0	0
